## Percent effect of library compounds

A: 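Whole-parasite assay of Trypanosoma brucei over 72 hours; the read-out is not stated. Concentration: 30 µM. Direction is inferred from retests: higher values go with stronger inhibition. Values scatter widely below zero; nearly all retest evidence comes from the higher of the two concentrations used. About 64,000 compounds were tested under these conditions; 1.5% (about 940) showed 50% or more at least once.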
B: 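Assay of Toxoplasma gondii numbers, read through their beta-galactosidase reporter with a colour substrate. Tested at 10 µM. Higher reads as fewer parasites (inferred from which compounds were picked for retests). Size under these conditions: about 67,000 compounds, about 260 of them at 50% or above in at least one test.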

Values are the deposited “Percent Effect”, in %. The controls that fix the scale are not given in the record; negative values are as filed. Compounds were drawn at random from those tested, without regard to their results. A dash means the value is not listed here; it may have been measured.

O=C(CCc1ccco1)N1CCC(Oc2ccccc2)(C(=O)O)CC1 gave A: -38.21%; B: 28.74%.
Cn1cc(C(=O)CC2CCCN2C(=O)c2ccn3ccnc3c2)cn1 (centres unmarked) gave A: -34.27%; B: 7.961%.
CSc1nnc(CC2CCN(C(=O)COc3cccnc3)CC2)n1C gave B: -4.763%.
Cc1cccc(N2CC3(CCN(C(=O)NC(C)C)C3)CC2=O)c1 (centres unmarked) gave A: -16.88%; B: 3.508%.
O=C(O)C(F)(F)F.O=C1COC2(CCN(Cc3nccs3)CC2)CN1CC1CC1 gave A: -28.54%; B: -0.9029%.
CS(=O)(=O)N1CCN(Cc2c(O)ccc3oc4c(c23)CCCC4)CC1 gave A: -17.13%; B: -0.9735%.
COCCN(Cc1cc(O)nc2ccccc12)C(=O)NC(C)C gave A: -42.16%; B: -8.25%.
Cc1nccn1C1(C(=O)O)CCN(Cc2ccc3c(c2)OCCO3)CC1 gave A: -32.14%; B: 3.464%.
O=C(c1cnns1)N1CCN(c2ccc(F)cc2Cl)CC1 gave A: 3.158%; B: -4.906%.
CN(CCc1ccccn1)CCc1nccs1 gave A: -32.07%; B: -8.753%.
Cc1cc(CN2CCC(CNS(=O)(=O)c3ccccc3Cl)CC2)c(C)o1 gave A: -4.081%; B: 13.43%.
Oc1ccc(-c2c(-c3ccccc3)ncn2C2CCNC2)cc1 (centres unmarked) gave B: 4.877%.
Cc1ccc(C2CSCCN2C(=O)c2ccsc2)o1 (centres unmarked) gave A: 13.74%; B: 2.711%.
CC(=O)Nc1ccc(C(=O)N(C)Cc2cccc(F)c2)s1 gave A: -24.88%; B: 2.105%.
O=c1n(Cc2ccc(F)cc2)nc2ncccn12 gave A: -36.56%; B: 12.8%.
CC(NC(=O)Nc1ccc(OC2CCCC2)cc1)c1nc[nH]n1 (centres unmarked) gave A: -47.11%; B: -3.304%.
OCc1ccc(N2CCN(c3ncccn3)CC2)c(F)c1 gave B: 0.1701%.
O=C(NCC1(O)CCSC1)c1ccn(-c2ccccc2F)n1 (centres unmarked) gave A: -10.07%; B: 5.982%.
[H][C@@]12CN(c3ccc(C)nn3)C[C@@H](C(=O)NCc3ccco3)[C@]1([H])CCO2 gave A: -1.339%; B: -7.238%.
COc1ccc(C2CCN(Cc3cscn3)CC2)cc1 gave A: -19.85%; B: 5.725%.
O=C(NCCCF)N1CCC(n2ccc(C(F)(F)F)n2)CC1 gave A: -26.5%; B: -2.024%.
Cl.O=C(CCC1CCCC1)N1CCCC(c2ncc3c(n2)CCNC3)C1 (centres unmarked) gave A: -9.852%; B: -24.25%.
[H][C@]12CC[C@]([H])(CN(c3ncccn3)C1)N(Cc1ccsc1)C2 gave A: -48.13%; B: 23.19%.
c1ccc(-n2ncc(CN3CCCC(Cn4cncn4)C3)n2)cc1 (centres unmarked) gave A: -2.324%; B: 2.334%.

Some entries from above, unchanged:

structure	A	B
COc1ccc(C2CCN(Cc3cscn3)CC2)cc1	-19.85	5.725
O=C(c1cnns1)N1CCN(c2ccc(F)cc2Cl)CC1	3.158	-4.906
Oc1ccc(-c2c(-c3ccccc3)ncn2C2CCNC2)cc1 (centres unmarked)	-	4.877

Data taken from ChEMBL document CHEMBL3988442, “University of Dundee, Small-Polar-MMV Screening Library” (2021).